Assay results from PMC11234269.
Results are given in words; binding and its absence hold for the method and conditions named. Binding seen in cells or lysates may run through a third protein. Some binding calls cover weakened binding; strength is not graded here. For some of these results: Tags and fused reporters may be left off the sequences shown.

Chains of the proteins cited; added tags and fusions are not shown.
UniProt Q60980: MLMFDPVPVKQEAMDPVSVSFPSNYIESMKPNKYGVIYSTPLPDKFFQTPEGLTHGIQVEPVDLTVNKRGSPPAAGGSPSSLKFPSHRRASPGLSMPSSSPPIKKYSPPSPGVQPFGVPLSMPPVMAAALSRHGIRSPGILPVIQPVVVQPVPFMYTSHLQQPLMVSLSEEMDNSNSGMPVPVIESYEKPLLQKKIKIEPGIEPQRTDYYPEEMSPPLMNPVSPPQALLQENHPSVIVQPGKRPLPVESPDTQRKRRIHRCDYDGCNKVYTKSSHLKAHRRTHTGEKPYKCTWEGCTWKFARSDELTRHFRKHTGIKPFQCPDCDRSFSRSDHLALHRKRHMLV
UniProt O89090: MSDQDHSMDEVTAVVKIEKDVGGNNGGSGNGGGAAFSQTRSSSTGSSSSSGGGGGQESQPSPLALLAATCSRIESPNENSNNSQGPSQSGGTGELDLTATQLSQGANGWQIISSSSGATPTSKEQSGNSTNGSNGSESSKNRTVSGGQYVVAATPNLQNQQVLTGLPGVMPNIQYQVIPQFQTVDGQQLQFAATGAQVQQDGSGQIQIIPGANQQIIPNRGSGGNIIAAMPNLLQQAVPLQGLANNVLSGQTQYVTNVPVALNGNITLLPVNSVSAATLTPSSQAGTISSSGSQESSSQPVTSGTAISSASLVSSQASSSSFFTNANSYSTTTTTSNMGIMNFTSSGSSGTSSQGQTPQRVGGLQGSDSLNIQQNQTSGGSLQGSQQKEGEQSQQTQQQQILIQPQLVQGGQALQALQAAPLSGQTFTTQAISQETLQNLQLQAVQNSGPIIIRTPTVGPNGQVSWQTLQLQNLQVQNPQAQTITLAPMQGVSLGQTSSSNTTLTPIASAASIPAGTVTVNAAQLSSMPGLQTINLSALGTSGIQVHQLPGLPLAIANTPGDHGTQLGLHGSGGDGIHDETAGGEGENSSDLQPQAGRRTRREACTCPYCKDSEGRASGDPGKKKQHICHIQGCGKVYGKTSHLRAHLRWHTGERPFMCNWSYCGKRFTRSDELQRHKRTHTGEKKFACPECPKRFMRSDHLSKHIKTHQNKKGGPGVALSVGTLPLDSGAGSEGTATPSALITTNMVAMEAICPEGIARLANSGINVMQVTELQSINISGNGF

How the values were obtained:
[1] = biological target: Klf3-venus-173 (Krüppel-like factor 3 fused to a Venus fragment) (UniProt Q60980); experiment: split reporter; bimolecular fluorescence complementation: venus-173 and venus-174 fusions cotransfected into 3T3 cells, read with an upright fluorescence microscope
[2] = biological target: Sp1-venus-173 (trans-acting transcription factor 1 fused to a Venus fragment) (UniProt O89090); experiment: as above
[3] = biological target: KLF3 expressed from pCMV-Klf3 (UniProt Q60980); experiment: co-IP; 3T3 cells transfected with vectors; IP lysis buffer; immunoprecipitation with an anti-SP1 or anti-KLF3 antibody overnight, Protein A/G beads for 4 hours, 3 PBS washes; immunoblot for CBX4, SP1 and KLF3
[4] = biological target: SP1 expressed from pCMV-Sp1 (UniProt O89090); experiment: as above

binding [1] | binding [2] | binding [3] | binding [4] | Binder
binds | binds | – | – | Cbx4-venus-174 (chromobox protein 4 fused to a Venus fragment) (protein, UniProt O55187 1-551) MELPAVGEHVFAVESIEKKRIRKGRVEYLVKWRGWSPKYNTWEPEENILDPRLLIAFQNRERQEQLMGYRKRGPKPKPLVVQVPTFARRSNVLTGLQDSSADNRAKLELGTQGKGQGHQYELNSKKHHQYQPHSKERSGKPPPPGKSGKYYYQLNSKKHHPYQPDPKMYDLQYQGGHKEAPSPTCPDLGTKSHPPDKWAHGAAAKGYLGAVKPLGGGAGAPGKGSEKGPPNGMTPAPKEAVTGNGIGGKMKIVKNKNKNGRIVIVMSKYMENGMQAVKIKSGEAAEGEARSPSHKKRAAEERHPQGDRTFKKAAGASEEKKAEVPCKRREEEALVSGDAQPQDLGSRKLSPTKEAFGEQPLQLTTKPDLLAWDPARSSHPPAHHHHHHHHHHHHHTVGLNLSHARKRCLSETHGEREPCKKRLTARSISTPTCLGGSPVSEHPANVSPTAASLPQPEVILLDSDLDEPIDLRCVKMRSDAGEPPSTLQVKPEAPAVAAVVAPAPASEKPPAEAQEEPVEPLSEFKPFFGNIIITDVTANCLTVTFKEYVTV
– | – | binds | binds | CBX4 expressed from Pcaggs-Cbx4 (protein, UniProt O55187 1-551) MELPAVGEHVFAVESIEKKRIRKGRVEYLVKWRGWSPKYNTWEPEENILDPRLLIAFQNRERQEQLMGYRKRGPKPKPLVVQVPTFARRSNVLTGLQDSSADNRAKLELGTQGKGQGHQYELNSKKHHQYQPHSKERSGKPPPPGKSGKYYYQLNSKKHHPYQPDPKMYDLQYQGGHKEAPSPTCPDLGTKSHPPDKWAHGAAAKGYLGAVKPLGGGAGAPGKGSEKGPPNGMTPAPKEAVTGNGIGGKMKIVKNKNKNGRIVIVMSKYMENGMQAVKIKSGEAAEGEARSPSHKKRAAEERHPQGDRTFKKAAGASEEKKAEVPCKRREEEALVSGDAQPQDLGSRKLSPTKEAFGEQPLQLTTKPDLLAWDPARSSHPPAHHHHHHHHHHHHHTVGLNLSHARKRCLSETHGEREPCKKRLTARSISTPTCLGGSPVSEHPANVSPTAASLPQPEVILLDSDLDEPIDLRCVKMRSDAGEPPSTLQVKPEAPAVAAVVAPAPASEKPPAEAQEEPVEPLSEFKPFFGNIIITDVTANCLTVTFKEYVTV
